Amino acid sequences for entries named in this document (tags omitted).
UniProt P18054, whole entry: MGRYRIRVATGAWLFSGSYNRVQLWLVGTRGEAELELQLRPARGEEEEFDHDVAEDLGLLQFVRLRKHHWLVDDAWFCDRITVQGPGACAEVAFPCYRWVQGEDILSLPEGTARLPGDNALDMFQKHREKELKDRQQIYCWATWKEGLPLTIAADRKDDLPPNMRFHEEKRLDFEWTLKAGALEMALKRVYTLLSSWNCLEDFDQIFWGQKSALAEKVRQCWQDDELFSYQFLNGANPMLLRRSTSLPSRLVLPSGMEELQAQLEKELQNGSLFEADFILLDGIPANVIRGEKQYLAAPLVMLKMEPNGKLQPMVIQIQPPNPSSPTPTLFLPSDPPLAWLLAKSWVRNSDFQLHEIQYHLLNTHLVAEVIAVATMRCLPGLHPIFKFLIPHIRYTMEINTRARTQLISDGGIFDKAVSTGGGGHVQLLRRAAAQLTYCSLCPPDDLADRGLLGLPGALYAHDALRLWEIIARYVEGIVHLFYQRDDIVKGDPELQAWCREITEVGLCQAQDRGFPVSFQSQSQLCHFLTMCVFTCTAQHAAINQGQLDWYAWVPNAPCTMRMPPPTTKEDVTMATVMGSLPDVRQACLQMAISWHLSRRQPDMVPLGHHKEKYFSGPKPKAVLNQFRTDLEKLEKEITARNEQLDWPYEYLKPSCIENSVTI

“And” between values parts separate entries of the source, which are not always exact repeats. Equal values may be shown once. The whole screen tested about 580,000 compounds, of which about 6,100 (1.1%) were called active. This list was built around the results that the source calls inconclusive (neither active nor inactive); the mix of calls is not that of the screen. Calls come from the whole dose curve; as a rule, active = well fitted inhibition curve with a large enough effect; inconclusive = small, poorly fitted or top-dose-only effect, or another doubt; inactive = no such curve, though single readings can be large or run the other way. Potencies beside an inconclusive call are fits to weak or partial responses and may not hold up.
What follows are compounds tested against Polyunsaturated fatty acid lipoxygenase ALOX12 (Homo sapiens) (UniProt P18054) (assay: Primary qHTS assay for inhibitors of human arachidonate 12S-lipoxygenase (ALOX12): Round 2). Conditions: purified 12hLO, xylenol orange hydroperoxide absorbance; activity change, negative = inhibition: at 108 µM (top of the series).
Summary of the method: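 Purified human 12hLO at 150 nM in 25 mM Hepes, 0.01% Triton X-100, pH 7.0, preincubated 15 min at room temperature with compound. Reaction started with 40 uM arachidonic acid, 30 min at room temperature. Hydroperoxide measured by Fe-xylenol orange, 573/405 nm absorbance ratio.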
With `CC1=NN=C(c2ccc(N)cc2)c2cc3c(cc2C1)OCO3` the Potency was inconclusive: 12.2 µM [inhibitor, partial curve, poor fit].
For `COc1cc(CNCCc2ccccc2)cc(OC)c1`, the Potency was inconclusive: 0.224 µM [inhibitor, full curve, poor fit].
For `CC1CCN(CC#CCOc2ccc(Cl)cc2)CC1`, the Potency was inconclusive: 3.16 µM [inhibitor, full curve, poor fit].
`COc1ccc(N/N=C/c2c(O)n(-c3ccc(C)c(C)c3)c(=O)[nH]c2=O)cc1` was tested, and the Potency was inconclusive: 44.7 µM [inhibitor, partial curve, poor fit].
`O=C1NC(=S)N(c2ccccc2F)C(=O)/C1=C\c1cccs1` was tested, and the Potency was active: 31.6 µM.
In the case of `Cc1cnc(NC(=O)CN2CCCCC2)s1`, the Potency was inconclusive: 0.447 µM [inhibitor, full curve, poor fit].
With `COC(=O)C1=C(c2ccc(-c3ccccc3)c(F)c2)C[C@@H]2CC[C@H]1N2C(=O)N1CCC(C)CC1` the “activity change, negative = inhibition” value was inactive: -25.7%.
With `COC(=O)C1=C(c2ccc(OC)c(OC)c2)C[C@@H]2CC[C@H]1N2C(=O)NCc1ccco1` the Potency was inconclusive: 7.94 µM [inhibitor, partial curve, poor fit].
`CCOC(=O)C1(CCc2ccccc2)CCN(Cc2cccc3c2OCO3)CC1` was tested, and the “activity change, negative = inhibition” value was inactive: -3.22%.
With `COC(=O)C1=C(c2ccc(OC(F)(F)F)cc2)C[C@@H]2CC[C@H]1N2C(=O)N1CCc2cc(OC)c(OC)cc2C1` the “activity change, negative = inhibition” value was inactive: -10.1%.
In the case of `CCCCCn1c(=O)c(C(=O)Nc2ccccc2Cl)c(O)c2ccccc21`, the “activity change, negative = inhibition” value was inactive: 0.419%.
In the case of `O=C(NC[C@H]1C[C@@H]2CCN1C[C@@H]2CN1C[C@@H]2C[C@H](C1)c1cccc(=O)n1C2)c1ccccc1`, the “activity change, negative = inhibition” value was inactive: 20%.
`COc1cccc(CC(=O)N2CC(N(C)Cc3cccnc3)C2)c1` was tested, and the “activity change, negative = inhibition” value was inactive: 6.97%.
In the case of `COc1ccccc1N=C1SCCCN1C`, the Potency was inconclusive: 5.01 µM [inhibitor, full curve].
In the case of `CN1CCC(OC(=O)Cc2ccccc2)CC1`, the Potency was inconclusive: 39.8 µM [inhibitor, partial curve, poor fit].
`COc1cccc(OC)c1C1=NCC(=O)Nc2c1oc1ccc(Br)cc21` was tested, and the Potency was inconclusive: 70.8 µM [inhibitor, partial curve, poor fit].
`COc1ccc(-c2cc([C@H]3CN4CC[C@H]3C[C@@H]4CNC(=O)c3cccs3)nc(C)n2)cc1OC` was tested, and the Potency was inconclusive: 20 µM [inhibitor, full curve].
With `CCOC(=O)C(O)(c1ccc(N(C)C(=O)c2ccc(Cl)c(Cl)c2)cc1)C(F)(F)F` (stereo unspecified) the Potency was inconclusive: 56.2 µM [inhibitor, partial curve, poor fit].
For `CC(C(=O)c1ccc(Cl)cc1Cl)n1cncn1` (stereo unspecified), the Potency was inconclusive: 5.01 µM [inhibitor, partial curve, poor fit].
For `O=C1NC(=O)[C@]2(Cc3ccccc3N3CCN(c4ccccc4)CC32)C(=O)N1Cc1ccccc1` (stereo partly specified), the Potency was active: 15.8 µM.
With `CCN1C(=O)N(CC)C(=O)C2(Cc3ccccc3N3CCN(c4ccccc4)CC32)C1=O` (stereo unspecified) the Potency was inconclusive: 89.1 µM [inhibitor, single point].
For `NC(Cc1ccc(Cl)cc1)c1csc(Nc2cnccn2)n1` (stereo unspecified), the Potency was inconclusive: 79.4 µM [inhibitor, single point].
`CCOc1ccccc1CN1CCN(c2ccccc2)CC1` was tested, and the Potency was inconclusive: 0.631 µM [inhibitor, full curve, poor fit].
For `N[C@@H](Cc1c[nH]c2ccccc12)c1nnc(SCc2ccc(F)cc2)o1`, the “activity change, negative = inhibition” value was inactive: 5.45%.
With `O=C(NCc1ccc(F)cc1)[C@H]1CN2CC[C@H]1C[C@@H]2Cn1cc(CC2CCCCC2)nn1` the “activity change, negative = inhibition” value was inactive: 16.6%.
With `CC(=O)OC1(c2ccc(C)cc2)CN2CCC1c1ccccc12` (stereo unspecified) the Potency was inconclusive: 50.1 µM [inhibitor, partial curve, poor fit].
In the case of `O=C1NCCOCCCN[C@H]2CCCC[C@@H]12`, the “activity change, negative = inhibition” value was inactive: 10.1%.
For `Cc1cc(/C=C2\C(=O)NC(=O)N(c3cccc(F)c3)C2=O)c(C)n1-c1cc(C(=O)O)cc(C(=O)O)c1`, the Potency was inconclusive: 39.8 µM [inhibitor, partial curve].
With `O=Cc1cn(Cc2ccccc2F)c2ccccc12` the Potency was inconclusive: 44.7 µM [inhibitor, partial curve, poor fit].
In the case of `C=CCC1(CC)C(=O)NC(=S)NC1=O`, the Potency was inconclusive: 56.2 µM [inhibitor, partial curve, poor fit].
With `O=c1[nH]c(=S)[nH]c(O)c1N=Nc1ccc(S(=O)(=O)N2CCOCC2)cc1` the Potency was inconclusive: 0.178 µM [inhibitor, full curve, poor fit].
For `COc1ccc(C(c2nnnn2-c2ccc3c(c2)OCCO3)N2CCC(n3c(=O)[nH]c4ccccc43)CC2)cc1` (stereo unspecified), the Potency was inconclusive: 50.1 µM [inhibitor, partial curve, poor fit].
In the case of `COCC1CN(C2CCC2)CC12CCN(Cc1ccncc1)CC2` (stereo unspecified), the “activity change, negative = inhibition” value was inactive: 95.5%.
In the case of `CC(=O)c1c(O)c(C)c(O)c(Cc2c(O)c3c(c(C(=O)/C=C/c4ccccc4)c2O)OC(C)(C)C=C3)c1O`, the Potency was inconclusive: 89.1 µM [inhibitor, single point] and inconclusive: 89.1 µM [inhibitor, partial curve, poor fit].
`Cn1cc(C(=O)OCC(=O)NC2CCCCC2)c2ccccc21` was tested, and the Potency was inconclusive: 70.8 µM [inhibitor, single point].
For `O=C(O)c1cc2ccccc2oc1=O`, the Potency was inconclusive: 89.1 µM [inhibitor, single point].
With `Fc1ccccc1CNCCc1c[nH]c2ccccc12` the Potency was inconclusive: 1.12 µM [inhibitor, full curve, poor fit].
`COc1nc2ccccc2cc1CN1CCC2(C1)CN(C)C(=O)O2` (stereo unspecified) was tested, and the Potency was inconclusive: 3.98 µM [inhibitor, partial curve, poor fit].
For `Cc1oc2cc(OCC(=O)N3CCN(C)CC3)ccc2c(=O)c1-c1ccccc1`, the Potency was inconclusive: 126 µM [inhibitor, partial curve, poor fit].
With `Cc1cccc(Cn2cccc(C(=O)Nc3ccc4c(c3)OCCO4)c2=O)c1` the Potency was inconclusive: 100 µM [inhibitor, partial curve, poor fit].
In the case of `CN=CNc1ccc(C)cc1C`, the “activity change, negative = inhibition” value was inactive: 0.411% [at 176 µM].
With `O=C(COc1ccc(Cl)cc1)NCCc1cnc[nH]1` the Potency was inconclusive: 31.6 µM [inhibitor, partial curve, poor fit].
With `Cc1ccccc1N1C(=O)NC(=O)/C(=C\c2cc(Br)c(N3CCOCC3)o2)C1=O` the “activity change, negative = inhibition” value was inactive: -27.6%.
With `CCC1C(C#N)=C(N)Oc2c1c(=O)oc1ccccc21` (stereo unspecified) the Potency was inconclusive: 14.1 µM [inhibitor, partial curve, poor fit].
In the case of `CN1CCN(c2ccc3c(c2)S(=O)(=O)c2ccccc2C3=O)CC1`, the “activity change, negative = inhibition” value was inactive: -2.39%.
For `CC(C)NC1CCC(C(C)(C)C)CC1` (stereo unspecified), the Potency was inconclusive: 0.631 µM [inhibitor, full curve, poor fit].
With `Cc1nc(-c2ccccc2Br)cc([C@H]2CN3CC[C@H]2C[C@@H]3CNC(=O)c2ccccc2)n1` the “activity change, negative = inhibition” value was inactive: 7.62%.
In the case of `COc1ccc(C2CC(c3c(O)n(CCc4ccccc4)c(=O)[nH]c3=O)=NN2)cc1OC` (stereo unspecified), the Potency was inconclusive: 44.7 µM [inhibitor, partial curve, poor fit].
In the case of `CCN(CC)C(=O)[C@@H]1C=C2c3cccc4[nH]c(Br)c(c34)C[C@H]2N(C)C1`, the Potency was inconclusive: 50.1 µM [inhibitor, partial curve, poor fit].
`C[N+](C)(C)CC1CC1` was tested, and the Potency was inconclusive: 20 µM [inhibitor, partial curve, poor fit].
`CN(C)C(CNC(=O)Cc1ccc(Br)cc1)c1ccccc1` (stereo unspecified) was tested, and the Potency was inconclusive: 100 µM [inhibitor, single point].
`Cn1cc(C(=O)N2CCOCC2)c2ccccc21` was tested, and the “activity change, negative = inhibition” value was inactive: -8.25%.
For `COc1ccccc1N1CCN(Cc2c(F)cccc2Cl)CC1`, the Potency was inconclusive: 5.01 µM [inhibitor, full curve, poor fit].
`COc1cccc(NC(=O)Cn2cc(C(=O)c3ccccc3)c3ccccc32)c1` was tested, and the “activity change, negative = inhibition” value was inactive: 0%.
With `CCCOc1ccc(C2SCC(=O)Nc3c2c(C)nn3-c2cccc(C)c2)cc1OC` (stereo unspecified) the Potency was inconclusive: 141 µM [inhibitor, partial curve, poor fit].
In the case of `Cc1ccc(NC(=O)c2cn(C)c3ccccc23)c2cccnc12`, the “activity change, negative = inhibition” value was inactive: -5.44%.
For `CCOC(=O)c1c(N)n(CCN2CCCCC2)c2nc3ccccc3nc12`, the Potency was inconclusive: 50.1 µM [inhibitor, partial curve, poor fit].
For `CC(C)(C)NC(=O)NC(=O)CCl`, the Potency was inconclusive: 56.2 µM [inhibitor, partial curve, poor fit].
For `CC(C)N1CCN(c2ccc(O)cc2)CC1`, the Potency was inconclusive: 112 µM [inhibitor, partial curve, poor fit].
In the case of `CCc1ccc(N2C(=O)NC(=O)/C(=C/c3cccn3CCOc3ccc(C(C)CC)cc3)C2=O)cc1` (stereo unspecified), the Potency was inconclusive: 50.1 µM [inhibitor, partial curve, poor fit].
With `Nc1ncccc1CN1CC[C@H]2NCCC[C@]2(C(=O)O)C1` the “activity change, negative = inhibition” value was inactive: 35.1%.
In the case of `O=C(CSC1c2ccccc2Oc2ccccc21)Nc1cccc(C(=O)O)c1`, the “activity change, negative = inhibition” value was inactive: 13.3%.
For `O=C1NCN(c2ccccc2)C12CCN(C(c1cc3ccccc3o1)c1nnnn1Cc1ccccc1)CC2` (stereo unspecified), the Potency was inconclusive: 44.7 µM [inhibitor, partial curve, poor fit].
For `O=C(c1cc(C(=O)NCc2ccccc2)c(=O)n(Cc2ccccc2)c1)c1cc(Cl)ccc1O`, the Potency was inconclusive: 2 µM [inhibitor, full curve, poor fit].
In the case of `O=C(c1c[nH]cc1-c1ccccc1)c1cccc2ccccc12`, the “activity change, negative = inhibition” value was inactive: 34.1%.
`COc1cc2c(cc1OCc1ccc(Cl)cc1)N(Cc1ccccc1)CC21CCN(C(C)=O)CC1` was tested, and the Potency was active: 31.6 µM.
% is set by controls: 0 for no effect and ±100 for the full control effect; potency is the fitted concentration of half-maximal effect.
